ChEMBL document CHEMBL1146292, “Dual serotonin transporter/histamine H3 ligands: Optimization of the H3 pharmacophore” (Bioorg Med Chem Lett, 2007)

Sequences of proteins named here, by UniProt entry; tags and fusion partners are left off. A change or cut given only in a name is not applied to a line headed by its entry.
UniProt Q9Y5N1: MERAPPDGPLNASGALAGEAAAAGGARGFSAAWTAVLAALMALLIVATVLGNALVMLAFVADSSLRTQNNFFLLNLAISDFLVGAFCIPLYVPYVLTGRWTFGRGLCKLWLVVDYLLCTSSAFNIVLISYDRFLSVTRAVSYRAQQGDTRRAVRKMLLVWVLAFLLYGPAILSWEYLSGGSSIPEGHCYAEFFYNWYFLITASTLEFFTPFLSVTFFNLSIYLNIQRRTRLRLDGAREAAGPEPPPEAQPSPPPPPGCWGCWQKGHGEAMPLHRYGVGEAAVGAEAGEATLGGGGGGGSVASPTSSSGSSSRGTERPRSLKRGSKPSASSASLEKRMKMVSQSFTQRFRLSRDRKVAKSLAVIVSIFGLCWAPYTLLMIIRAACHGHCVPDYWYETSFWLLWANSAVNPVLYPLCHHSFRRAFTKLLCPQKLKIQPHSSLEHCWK

Molecular target: Histamine H3 receptor (Homo sapiens, UniProt Q9Y5N1)
Experiment: Binding affinity to human histamine H3 receptor
Summary of the method: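 Means of at least three independent experiments, each run in triplicate; standard error of the mean reported.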

Q: How did the Ki turn out when `CNCCC(Oc1ccc(C(F)(F)F)cc1)c1ccccc1` (stereo unspecified) [FLUOXETINE] was run?
A: 7.3 µM
